Results: patent US20140341971A1 (LIPOTEK, published 2014)

Experiments:
[1] = biological target: pigtailed macaque DC-SIGN (pigtailed macaque (Macaca nemestrina)); assay: in vitro binding studies of Lipovaxin-MM to macaque DC-SIGN
[2] = biological target: pigtailed macaque DC-SIGN (pigtailed macaque (Macaca nemestrina)); assay: in vitro cell binding
[3] = biological target: pigtailed macaque DC-SIGN (pigtailed macaque (Macaca nemestrina)); assay: restates the in vitro cell binding result
[4] = biological target: marmoset DC-SIGN (common marmoset (Callithrix jacchus)); assay: binding studies on cells modified to express marmoset DC-SIGN
[5] = biological target: pigtailed macaque DC-SIGN (pigtailed macaque (Macaca nemestrina)); assay: in vitro, Lipovaxin-MM on monocyte-derived macaque DCs and on THP-1 cells expressing exogenous macaque DC-SIGN

Measured: binding

B1: DMS5000 (other)
VH: STEVQLLESGGGLVQPGGSLRLSCAASGFTFDRRAMGWVRQAPGKGLEWVSSIESDGTRTYYADSVKGRFTISRDNSKNTLYLQMNSLRAEDTAVYYCAKHPGSSYVFDYWGQGTLVTVSS
notes: Human VH domain antibody (dAb), made as a secreted protein in E. coli; also called DC-SIGN specific domain antibody (dAb); dAb
binds: [1] | [2] | [3] | [4] | [5]

Results are given in words; binding and its absence hold for the method and conditions named. Binding calls can cover weak binding; strength is not graded here.
